Assay results published in EP1469074B1, “Human calcium channel compositions and methods” (priority 1991, dated 1993).
At least one compound was matched to its structure with a doubt left.

System: human neuronal calcium channel α2 and β1 subunits, expressed in Xenopus laevis oöcytes
Test: Two-electrode voltage clamp of barium currents in Xenopus laevis oöcytes injected with α2 and β1 transcripts (no α1D; comparison)
Format: cell-based
Conditions: nifedipine 5 to 10 µM, holding potential -50 mV

COC(=O)C1=C(C)NC(C)=C(C(=O)OC)C1c1ccccc1[N+](=O)[O-] [nifedipine]
sensitivity of inward barium currents to the compound: insensitive
